Measurements from the supplement of paper PMC9233669.
Variants at the background level are over-represented here.

Experiments:
biotinyl-Phe-oxazolone = assay: self-aminoacylation, catalytic enhancement (BFO) (fold over background); higher = more active; k-Seq, kA / k0A0; sequences stand for … in GGGAAUGGAUCCACAUCUACGAAUUC…UUCACUGCAGACUUGACGAAGCUG
In short: (§1)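 Mutagenized RNA pools with a 21-nt variable region (0.43 μM) reacted with each biotinyl-aminoacyl-oxazolone at 2–1250 μM. Reactions ran in 50 μL HEPES/NaCl/KCl/MgCl2/CaCl2 buffer with 5% acetonitrile, pH 6.9–7.0, for 90 minutes at room temperature. Streptavidin-captured RNA was quantified by triplicate qPCR and Illumina sequencing, and per-sequence fraction reacted was fit to a pseudo-first-order model with 1000 bootstraps. Catalytic enhancement is median kA divided by the uncatalyzed rate, the low-activity peak of a bimodal Gaussian fit.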

biotinyl-Met-oxazolone = assay: self-aminoacylation, catalytic enhancement (BMO) (fold over background); higher = more active; k-Seq, kA / k0A0; sequences stand for … in GGGAAUGGAUCCACAUCUACGAAUUC…UUCACUGCAGACUUGACGAAGCUG
In short: as §1

biotinyl-Leu-oxazolone = assay: self-aminoacylation, catalytic enhancement (BLO) (fold over background); higher = more active; k-Seq, kA / k0A0; sequences stand for … in GGGAAUGGAUCCACAUCUACGAAUUC…UUCACUGCAGACUUGACGAAGCUG
In short: as §1

biotinyl-Ile-oxazolone = assay: self-aminoacylation, catalytic enhancement (BIO) (fold over background); higher = more active; k-Seq, kA / k0A0; sequences stand for … in GGGAAUGGAUCCACAUCUACGAAUUC…UUCACUGCAGACUUGACGAAGCUG
In short: as §1

biotinyl-Val-oxazolone = assay: self-aminoacylation, catalytic enhancement (BVO) (fold over background); higher = more active; k-Seq, kA / k0A0; sequences stand for … in GGGAAUGGAUCCACAUCUACGAAUUC…UUCACUGCAGACUUGACGAAGCUG
In short: as §1

biotinyl-Trp-oxazolone = assay: self-aminoacylation, catalytic enhancement (BWO) (fold over background); higher = more active; k-Seq, kA / k0A0; sequences stand for … in GGGAAUGGAUCCACAUCUACGAAUUC…UUCACUGCAGACUUGACGAAGCUG
In short: as §1

| Sequence | self-aminoacylation (biotinyl-Phe-oxazolone) | self-aminoacylation (biotinyl-Met-oxazolone) | self-aminoacylation (biotinyl-Leu-oxazolone) | self-aminoacylation (biotinyl-Ile-oxazolone) | self-aminoacylation (biotinyl-Val-oxazolone) | self-aminoacylation (biotinyl-Trp-oxazolone) |
| --- | --- | --- | --- | --- | --- | --- |
| AUUCACCUAGGUCAACGGUUG [Fam2.2 aminoacylation ribozyme variant] | 1.03 | 0.808 | 0.71 | 0.852 | 0.808 | 0.94 |
| AUUCACCUAGGUCACCUGGUG [Fam2.2 aminoacylation ribozyme variant] | 8.5 | 1.79 | 1.81 | 1.53 | 1.66 | 1.61 |
| AUUCACCUAGGUCAGCGAGUG [Fam2.2 aminoacylation ribozyme variant] | 25.3 | 4.93 | 6.37 | 3.44 | 3.34 | 5.84 |
| AUUCACCUAGGUCAUAGAGUG [Fam2.2 aminoacylation ribozyme variant] | 10.1 | 2.98 | 3.92 | 2.23 | 2.08 | 2.12 |
| AUUCACCUAGGUCAUAGGGAG [Fam2.2 aminoacylation ribozyme variant] | 1.17 | 0.779 | 0.988 | 0.905 | 1.1 | 0.643 |
| AUUCACCUAGGUCAUCAGGUC [Fam2.2 aminoacylation ribozyme variant] | 0.477 | 0.469 | 0.504 | 0.589 | 0.602 | 0.493 |
| AUUCACCUAGGUCAUCGGCUU [Fam2.2 aminoacylation ribozyme variant] | 6.3 | 2.26 | 2.3 | 2.1 | 2.02 | 3.27 |
| AUUCACCUAGGUCAUCGUGAG [Fam2.2 aminoacylation ribozyme variant] | 0.588 | 0.854 | 0.697 | 0.701 | 0.847 | 0.534 |
| AUUCACCUAGGUCAUCGUGGG [Fam2.2 aminoacylation ribozyme variant] | 1.03 | 1.24 | 1.19 | 0.893 | 1.15 | 0.781 |
| AUUCACCUAGGUCAUCUGGUA [Fam2.2 aminoacylation ribozyme variant] | 0.671 | 0.952 | 1.03 | 1.22 | 1.21 | 0.722 |
| AUUCACCUAGGUCCUCGGGAG [Fam2.2 aminoacylation ribozyme variant] | 2.83 | 0.981 | 2.11 | 1.29 | 1.38 | 1.29 |
| AUUCACCUAGGUCGUCCGGUG [Fam2.2 aminoacylation ribozyme variant] | 14.4 | 3.34 | 3.89 | 2.52 | 2.35 | 2.39 |
| AUUCACCUAGGUGAACGGGUG [Fam2.2 aminoacylation ribozyme variant] | 0.319 | 0.999 | 1.12 | 0.817 | 1.09 | 0.755 |
| AUUCACCUAGGUGAUCAGGUG [Fam2.2 aminoacylation ribozyme variant] | 1.46 | 1.72 | 1.63 | 1.52 | 1.43 | 1.92 |
| AUUCACCUAGGUGAUCGUGUG [Fam2.2 aminoacylation ribozyme variant] | 0.374 | 0.855 | 1.17 | 0.783 | 0.819 | 0.927 |
| AUUCACCUAGGUUAUCGGUUG [Fam2.2 aminoacylation ribozyme variant] | 0.661 | 0.833 | 1.31 | 0.766 | 0.898 | 0.67 |
| AUUCACCUAGUUCAUCGUGUG [Fam2.2 aminoacylation ribozyme variant] | 4.05 | 1.2 | 1.25 | 0.937 | 1.11 | 1.1 |
| AUUCACCUAUGGCAUCGGGUG [Fam2.2 aminoacylation ribozyme variant] | 11.9 | 2.41 | 2.84 | 1.96 | 1.94 | 2.25 |
| AUUCACCUCGGACAUCGGGUG [Fam2.2 aminoacylation ribozyme variant] | 40.1 | 4.76 | 6.78 | 3.09 | 4.74 | 5.08 |
| AUUCACCUGGGUCAUGGGGUG [Fam2.2 aminoacylation ribozyme variant] | 51.6 | 6.65 | 9.15 | 4.05 | 4.9 | 6.16 |
| AUUCACCUGGUUCAUCGGGUG [Fam2.2 aminoacylation ribozyme variant] | 15.2 | 3.08 | 3.19 | 2.42 | 3.1 | 3.62 |
| AUUCACCUUGGUCAUCGUGUG [Fam2.2 aminoacylation ribozyme variant] | 0.415 | 0.732 | 0.855 | 0.697 | 0.776 | 0.477 |
| AUUCACUUAGGUCAUAGGGUG [Fam2.2 aminoacylation ribozyme variant] | 3.24 | 1.82 | 2.08 | 1.37 | 1.29 | 1.85 |
| AUUCACUUAGGUCGUCGGGUG [Fam2.2 aminoacylation ribozyme variant] | 4.92 | 1.35 | 1.85 | 1.58 | 1.63 | 1.35 |
| AUUCAGCUAGGUCAUCAGGUG [Fam2.2 aminoacylation ribozyme variant] | 8.1 | 2.38 | 2.39 | 1.63 | 2.04 | 2.09 |
| AUUCCCCUAGGUCCUCGGGUG [Fam2.2 aminoacylation ribozyme variant] | 241 | 26.9 | 37.9 | 19.6 | 17.1 | 24.6 |

| Sequence | self-aminoacylation (biotinyl-Phe-oxazolone) | self-aminoacylation (biotinyl-Met-oxazolone) | self-aminoacylation (biotinyl-Leu-oxazolone) | self-aminoacylation (biotinyl-Ile-oxazolone) | self-aminoacylation (biotinyl-Val-oxazolone) | self-aminoacylation (biotinyl-Trp-oxazolone) |
| --- | --- | --- | --- | --- | --- | --- |
| AUUCGCUUAGGUCAUCGGGUG [Fam2.2 aminoacylation ribozyme variant] | 52.5 | 7.02 | 8 | 4.11 | 4.24 | 6.47 |
| AUUGACCUAGGUCAUCAGGUG [Fam2.2 aminoacylation ribozyme variant] | 1.64 | 1.56 | 1.33 | 1.37 | 1.4 | 1.25 |
| AUUGACCUAGGUGAUCGGGUG [Fam2.2 aminoacylation ribozyme variant] | 25.9 | 4.22 | 5.78 | 4.21 | 3.78 | 6.18 |
| AUUGCCCUGGUCAUCCAGUGA [Fam2.1 aminoacylation ribozyme variant] | 44.4 | 6.42 | 7.38 | 3.7 | 4.02 | 7.66 |
| AUUUACCUAGAUCAUCGGGUG [Fam2.2 aminoacylation ribozyme variant] | 12.3 | 2.35 | 3 | 2.17 | 1.88 | 3.38 |
| AUUUCCCUGGUCAUCGAGAGA [Fam2.1 aminoacylation ribozyme variant] | 1.31 | 0.896 | 1.1 | 1.2 | 1.27 | 0.74 |
| CAACACAUCAAGCAAUCGGUC [Fam1B.1 aminoacylation ribozyme variant] | 1.22 | 0.749 | 0.76 | 0.797 | 0.946 | 0.767 |
| CAACACUUCAUGCAAUCGGUC [Fam1B.1 aminoacylation ribozyme variant] | 1.01 | 0.874 | 0.949 | 0.942 | 0.902 | 0.761 |
| CAACUUCAAACAAUCGGUAUG [Fam1A.1 aminoacylation ribozyme variant] | 33.3 | 1.31 | 1.61 | 1.21 | 1.04 | 21 |
| CAGUUGGCUAAUAGUCGCAAG [Fam3.1 aminoacylation ribozyme variant] | 1.57 | 1.06 | 1.46 | 1.22 | 1.39 | 1.97 |
| CAGUUUGCUAAUACUCGCAAG [Fam3.1 aminoacylation ribozyme variant] | 1.04 | 0.865 | 0.945 | 0.873 | 0.714 | 1.17 |
| CAGUUUGCUAAUUGUCGCAAG [Fam3.1 aminoacylation ribozyme variant] | 1.16 | 1.46 | 1.85 | 1.44 | 1.52 | 1.25 |
| CCAAACUCCAAGCAAUCGGUC [Fam1B.1 aminoacylation ribozyme variant] | 1.55 | 0.811 | 1.14 | 1.15 | 1.42 | 1.22 |
| CCAAACUUCAAGCAACCGGUC [Fam1B.1 aminoacylation ribozyme variant] | 1.29 | 1.07 | 0.928 | 1.18 | 1.5 | 1.18 |
| CCAAACUUCAAGCAAUCGCUC [Fam1B.1 aminoacylation ribozyme variant] | 0.675 | 1.3 | 1.14 | 1.28 | 1.39 | 1.51 |
| CCAAACUUCAAGCAAUCGGUA [Fam1B.1 aminoacylation ribozyme variant] | 1.06 | 0.992 | 1.1 | 1.23 | 1.11 | 1.14 |
| CCAAACUUCAAGCUAUCGGUC [Fam1B.1 aminoacylation ribozyme variant] | 0.83 | 0.885 | 1.02 | 1.24 | 1.26 | 0.978 |
| CCAAUUCAAACAAUCGGUCUG [Fam1A.1 aminoacylation ribozyme variant] | 6.78 | 1.02 | 1.16 | 1.11 | 1.11 | 5.22 |
| CCACAAAUCAAGCAAUCGGUC [Fam1B.1 aminoacylation ribozyme variant] | 1.01 | 0.882 | 0.937 | 1.22 | 1.17 | 0.793 |
| CCACAAUACAAGCAAUCGGUC [Fam1B.1 aminoacylation ribozyme variant] | 0.969 | 0.822 | 0.881 | 1.07 | 1.07 | 0.568 |
| CCACAAUUCAAGCAAACGGUC [Fam1B.1 aminoacylation ribozyme variant] | 1.17 | 0.881 | 0.788 | 0.92 | 1.12 | 1.01 |
| CCACAAUUCAAGCAAUCCGUC [Fam1B.1 aminoacylation ribozyme variant] | 0.879 | 1.32 | 1.13 | 1.51 | 1.36 | 1.03 |
| CCACAAUUCAAGCAGUCGGUC [Fam1B.1 aminoacylation ribozyme variant] | 1.06 | 1.11 | 1.17 | 1.36 | 1.22 | 0.925 |
| CCACAAUUCUAGCAAUCGGUC [Fam1B.1 aminoacylation ribozyme variant] | 1.39 | 1.36 | 1.22 | 1.53 | 1.41 | 0.893 |
| CCACACAUCAAGCAAUCCGUC [Fam1B.1 aminoacylation ribozyme variant] | 0.79 | 0.977 | 0.861 | 1.21 | 1.1 | 1.09 |
